Procedure: Drugs—Clonidine HCl (Sigma Chemical Co., St. Louis, Mo.); Clonidine-HCl (phenyl-4-^3H) of specific activity 90 mCi/mg (Amersham, Arlington Heights, Ill.). […] The non-labelled drugs were dissolved in deionized water to form solutions of 1 mg/ml, with enough labelled drug to achieve an activity of approximately […].
Skin (13)—Full-thickness skin, freshly excised from 11-15 week old female hairless mice (strain Skh:HR-1, Simonsen Laboratory, Gilroy, Calif.).
Testing of the Modeling Cell—The diffusion cell 10 was tested in three ways:
(1) Leakage tests (without current) using dye and silicone rubber than skin; (2) leakage tests using dye and skin (without current); and (3) iontophoretic tests using the drug solutions and skin (with and without current). Procedures (1) and (2) were evaluated by visually inspecting the cell. For procedure (3), 0.6 ml of labelled drug solution was placed in chamber 16A, 0.6 ml of buffered saline was pipetted into chamber 16C, and a constant current of 0.63 mA/cm^2 (with the voltage limited at 9 V) was imposed between the electrodes in the two chambers. The activity of the solutions in chambers 16A and 16C was determined before and after iontophoresis. The activity of the skin 13 and of the samples taken from the receptor chamber was determined post-experimentally. Each experiment lasts approximately 24 hours, ±2 hours, with samples collected hourly. Receptor fluid 17 was magnetically stirred (27), and the collection flow rate was 10 ml/hr. Each procedure was, repeated three times.

For CN1CC[C@]23c4c5ccc(O)c4O[C@H]2[C@@H](O)C=C[C@H]3[C@H]1C5.O=S(=O)(O)O [morphine sulfate, Morphine sulfate], the “labelled drug detected in the buffered saline of chamber 16C” value (current applied (0.63 mA/cm^2), approximately 20 hours) was 1 µg, the “rate of penetration through the skin” value (current of 0.63 mA/cm^2, drug 1 mg/ml in chamber 16A) was 2.0 μg/cm^2/hr and the “drug in the buffered saline of chamber 16C” value (no current applied, after 20 hours) was “no drug was found”. The “mean rate of diffusion into the receptor phase (passive transport rate)” value (no current applied, drug 1 mg/ml in chamber 16A) was 0.04 μg/cm^2/hr.
